Data as given in PubChem BioAssay AID1224830 (NIAID, 2016).

Purpose: 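Host factors that control LPS-induced TNF expression in human macrophages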 (primary screen)
Cell system: human THP-1 monocytic leukaemia cells, TNF dual-luciferase reporter clone, PMA-differentiated to macrophage-like cells
Reagent: siRNA pool against human genes, 50 nM
Duration: LPS for 4 h, given about 3 days after siRNA transfection
Conditions: bacterial LPS (TLR4 ligand), 10 ng/ml
Detection: 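TNF firefly reporter luminescence divided by renilla, normalised to the plate median, then turned into a robust z-score for each replicate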
Direction: TNF reporter robust z-score: higher = stronger TNF reporter response to LPS
Hit rule: 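Each well counts as active if its z-score is over 2.8 or under -1.5; controls are left without a call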
The deposit covers about 18,000 reagents; below is an unselected part. Of all reagents, about 2,900 (16%) were called active. 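Calls are made per well; low scores hint the gene aids the LPS response, high scores that it dampens it.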 Repeated entries: four replicate wells of each siRNA pool.

The first 12 entries, ahead of the listing:
Gene	TNF reporter robust z-score	call
FRMD4A (FERM domain containing 4A)	1.23	inactive
FRMD4A (FERM domain containing 4A)	0.82	inactive
FRMD4A (FERM domain containing 4A)	1.08	inactive
FRMD4A (FERM domain containing 4A)	1.31	inactive
MYCBP (MYC binding protein)	0.74	inactive
MYCBP (MYC binding protein)	0.91	inactive
MYCBP (MYC binding protein)	0.38	inactive
MYCBP (MYC binding protein)	0.78	inactive
CEL (carboxyl ester lipase)	1.47	inactive
CEL (carboxyl ester lipase)	0.53	inactive
CEL (carboxyl ester lipase)	0.44	inactive
CEL (carboxyl ester lipase)	0.22	inactive

The list itself, from the start:
Gene	TNF reporter robust z-score	call
FRMD4A (FERM domain containing 4A)	1.23	inactive
FRMD4A (FERM domain containing 4A)	0.82	inactive
FRMD4A (FERM domain containing 4A)	1.08	inactive
FRMD4A (FERM domain containing 4A)	1.31	inactive
MYCBP (MYC binding protein)	0.74	inactive
MYCBP (MYC binding protein)	0.91	inactive
MYCBP (MYC binding protein)	0.38	inactive
MYCBP (MYC binding protein)	0.78	inactive
CEL (carboxyl ester lipase)	1.47	inactive
CEL (carboxyl ester lipase)	0.53	inactive
CEL (carboxyl ester lipase)	0.44	inactive
CEL (carboxyl ester lipase)	0.22	inactive
GNA15 (G protein subunit alpha 15)	-1.04	inactive
GNA15 (G protein subunit alpha 15)	-0.75	inactive
GNA15 (G protein subunit alpha 15)	-0.96	inactive
GNA15 (G protein subunit alpha 15)	-0.06	inactive
CCT8 (chaperonin containing TCP1 subunit 8)	0.39	inactive
CCT8 (chaperonin containing TCP1 subunit 8)	0.28	inactive
CCT8 (chaperonin containing TCP1 subunit 8)	-0.94	inactive
CCT8 (chaperonin containing TCP1 subunit 8)	0.4	inactive
CRX (cone-rod homeobox)	-1.04	inactive
CRX (cone-rod homeobox)	-0.05	inactive
CRX (cone-rod homeobox)	-0.9	inactive
CRX (cone-rod homeobox)	-1.17	inactive
TMEM87B (transmembrane protein 87B)	0.88	inactive
TMEM87B (transmembrane protein 87B)	1.78	inactive
TMEM87B (transmembrane protein 87B)	0.43	inactive
TMEM87B (transmembrane protein 87B)	2.98	active
SPATS2 (spermatogenesis associated serine rich 2)	1.2	inactive
SPATS2 (spermatogenesis associated serine rich 2)	4.03	active
SPATS2 (spermatogenesis associated serine rich 2)	-0.25	inactive
SPATS2 (spermatogenesis associated serine rich 2)	2.01	inactive
SPAG6 (sperm associated antigen 6)	-0.54	inactive
SPAG6 (sperm associated antigen 6)	0.18	inactive
SPAG6 (sperm associated antigen 6)	-0.2	inactive
SPAG6 (sperm associated antigen 6)	0.34	inactive
M1AP (meiosis 1 associated protein)	-1.05	inactive
M1AP (meiosis 1 associated protein)	-1.37	inactive
M1AP (meiosis 1 associated protein)	-1.26	inactive
M1AP (meiosis 1 associated protein)	-1.12	inactive
TRIM15 (tripartite motif containing 15)	-1.01	inactive
TRIM15 (tripartite motif containing 15)	0.32	inactive
TRIM15 (tripartite motif containing 15)	-0.46	inactive
TRIM15 (tripartite motif containing 15)	-0.58	inactive
TTC21B (tetratricopeptide repeat domain 21B)	-1.08	inactive
TTC21B (tetratricopeptide repeat domain 21B)	-0.58	inactive
TTC21B (tetratricopeptide repeat domain 21B)	0.1	inactive
TTC21B (tetratricopeptide repeat domain 21B)	-0.32	inactive
HORMAD1 (HORMA domain containing 1)	1.73	inactive
HORMAD1 (HORMA domain containing 1)	2.88	active
HORMAD1 (HORMA domain containing 1)	1.75	inactive
HORMAD1 (HORMA domain containing 1)	25.5	active
NQO1 (NAD(P)H quinone dehydrogenase 1)	-0.56	inactive
NQO1 (NAD(P)H quinone dehydrogenase 1)	-1.13	inactive
NQO1 (NAD(P)H quinone dehydrogenase 1)	-1.09	inactive
NQO1 (NAD(P)H quinone dehydrogenase 1)	0.83	inactive
UPB1 (beta-ureidopropionase 1)	-0.84	inactive
UPB1 (beta-ureidopropionase 1)	0.52	inactive
UPB1 (beta-ureidopropionase 1)	-0.02	inactive
UPB1 (beta-ureidopropionase 1)	-0.38	inactive
ZNF28 (zinc finger protein 28)	0.83	inactive
ZNF28 (zinc finger protein 28)	1.03	inactive
ZNF28 (zinc finger protein 28)	-0.18	inactive
ZNF28 (zinc finger protein 28)	0.3	inactive
PLSCR3 (phospholipid scramblase 3)	-0.96	inactive
PLSCR3 (phospholipid scramblase 3)	-0.84	inactive
PLSCR3 (phospholipid scramblase 3)	-0.24	inactive
PLSCR3 (phospholipid scramblase 3)	-0.25	inactive
DEFB127 (defensin beta 127)	0.36	inactive
DEFB127 (defensin beta 127)	0.46	inactive
DEFB127 (defensin beta 127)	0.31	inactive
DEFB127 (defensin beta 127)	0.43	inactive
ATP6V1H (ATPase H+ transporting V1 subunit H)	1.28	inactive
ATP6V1H (ATPase H+ transporting V1 subunit H)	-0.79	inactive
ATP6V1H (ATPase H+ transporting V1 subunit H)	-0.56	inactive
ZNF813 (zinc finger protein 813)	-0.23	inactive
ZNF813 (zinc finger protein 813)	-0.13	inactive
ZNF813 (zinc finger protein 813)	-0.91	inactive
ZNF813 (zinc finger protein 813)	-0.7	inactive
CCDC59 (coiled-coil domain containing 59)	-1.73	active
CCDC59 (coiled-coil domain containing 59)	-1.57	active
CCDC59 (coiled-coil domain containing 59)	-0.88	inactive
CCDC59 (coiled-coil domain containing 59)	-0.38	inactive
GOT2 (glutamic-oxaloacetic transaminase 2)		inactive
GOT2 (glutamic-oxaloacetic transaminase 2)	-0.13	inactive
GOT2 (glutamic-oxaloacetic transaminase 2)	-0.73	inactive
GOT2 (glutamic-oxaloacetic transaminase 2)	-0.32	inactive
GOT2 (glutamic-oxaloacetic transaminase 2)	-0.3	inactive
GMFG (glia maturation factor gamma)	0.04	inactive
GMFG (glia maturation factor gamma)	0.19	inactive
GMFG (glia maturation factor gamma)	0.33	inactive
GMFG (glia maturation factor gamma)	1.79	inactive
CGB2 (chorionic gonadotropin subunit beta 2)	-0.63	inactive
CGB2 (chorionic gonadotropin subunit beta 2)	0.24	inactive
CGB2 (chorionic gonadotropin subunit beta 2)	0.87	inactive
CGB2 (chorionic gonadotropin subunit beta 2)	0.31	inactive
TMEM74 (transmembrane protein 74)	-1.88	active
TMEM74 (transmembrane protein 74)	-1.21	inactive
TMEM74 (transmembrane protein 74)	-1.35	inactive
TMEM74 (transmembrane protein 74)	-1.26	inactive
NHLH1 (nescient helix-loop-helix 1)	-0.65	inactive
NHLH1 (nescient helix-loop-helix 1)	1.64	inactive
NHLH1 (nescient helix-loop-helix 1)	0.41	inactive
NHLH1 (nescient helix-loop-helix 1)	0.95	inactive
FASTKD2 (FASTK mitochondrial RNA regulator 2)	1.47	inactive
FASTKD2 (FASTK mitochondrial RNA regulator 2)	1.43	inactive
FASTKD2 (FASTK mitochondrial RNA regulator 2)	0.3	inactive
FASTKD2 (FASTK mitochondrial RNA regulator 2)	0.29	inactive
MYOCD (myocardin)	0.01	inactive
MYOCD (myocardin)	-0.63	inactive
MYOCD (myocardin)	0.11	inactive
MYOCD (myocardin)	0.82	inactive
